{"source": "PubChem BioAssay AID1159578 (Peter MacCallum Cancer Centre, 2015)", "purpose": "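siRNA pools altering how lymphatic endothelial cells close a scratch wound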 (primary screen)", "cells": "human lymphatic endothelial cells", "reagent": "siRNA pool against human genes, 40 nM", "time to read-out": "48 h after transfection", "measurement": "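Cells stained with dye and imaged after a scratch; covered wound area and nuclei counted, duplicates averaged, migration set against mock wells and turned into a robust z-score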", "direction": "migration robust z-score: higher = faster migration into the scratch; nuclei per well: higher = more cells in the well", "rule for the call": "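Migration changed when robust z exceeds 2 or falls below -2 and mean nuclei number is at least 3300; otherwise not called changed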", "meaning of the calls": "active = migration changed; inactive = no migration change, or too few cells", "note": "Here is one part, drawn at random, of about 18,000 reagents. About 1,030 of all reagents (5.7%) count as active. 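Inactive calls also include pools with fewer than 3300 nuclei, whose migration was not assessed.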 Raw values vary from plate to plate and are shown uncorrected. Not all columns of the deposit are shown. No sequences are given here."}
The opening 2 records as a preview:
{"gene symbol": "OR10A6", "PubChem SID": "SID255365611", "migration robust z-score": -0.35, "migration class with cell-count check": "migration z between -2 and 2; enough cells", "nuclei per well, duplicate mean": 5888, "Outcome": "inactive"}
{"gene symbol": "PFN2", "PubChem SID": "SID255351532", "migration robust z-score": 0.56, "migration class with cell-count check": "migration z between -2 and 2; enough cells", "nuclei per well, duplicate mean": 6154, "Outcome": "inactive"}

Results, repeating the preview:
{"gene symbol": "OR10A6", "PubChem SID": "SID255365611", "migration robust z-score": -0.35, "migration class with cell-count check": "migration z between -2 and 2; enough cells", "nuclei per well, duplicate mean": 5888, "Outcome": "inactive"}
{"gene symbol": "PFN2", "PubChem SID": "SID255351532", "migration robust z-score": 0.56, "migration class with cell-count check": "migration z between -2 and 2; enough cells", "nuclei per well, duplicate mean": 6154, "Outcome": "inactive"}
{"gene symbol": "KRAS", "PubChem SID": "SID255350675", "migration robust z-score": -1.94, "migration class with cell-count check": "migration z between -2 and 2; enough cells", "nuclei per well, duplicate mean": 5501, "Outcome": "inactive"}
{"gene symbol": "SEPSECS", "PubChem SID": "SID255357466", "migration robust z-score": 0.25, "migration class with cell-count check": "migration z between -2 and 2; enough cells", "nuclei per well, duplicate mean": 6510, "Outcome": "inactive"}
{"gene symbol": "DESI2", "PubChem SID": "SID255357423", "migration robust z-score": 1.69, "migration class with cell-count check": "migration z between -2 and 2; enough cells", "nuclei per well, duplicate mean": 5188, "Outcome": "inactive"}
{"gene symbol": "TRMU", "PubChem SID": "SID255358777", "migration robust z-score": 2.36, "migration class with cell-count check": "migration z above 2; enough cells", "nuclei per well, duplicate mean": 5054, "Outcome": "active"}
{"gene symbol": "TTI2", "PubChem SID": "SID255360692", "migration robust z-score": 0.37, "migration class with cell-count check": "migration z between -2 and 2; enough cells", "nuclei per well, duplicate mean": 5557, "Outcome": "inactive"}
{"gene symbol": "KICS2", "PubChem SID": "SID255363229", "migration robust z-score": 1.35, "migration class with cell-count check": "migration z between -2 and 2; enough cells", "nuclei per well, duplicate mean": 5056, "Outcome": "inactive"}
{"gene symbol": "MYEF2", "PubChem SID": "SID255357358", "migration robust z-score": -0.96, "migration class with cell-count check": "migration z between -2 and 2; enough cells", "nuclei per well, duplicate mean": 5466, "Outcome": "inactive"}
{"gene symbol": "HERC6", "PubChem SID": "SID255358344", "migration robust z-score": -0.16, "migration class with cell-count check": "migration z between -2 and 2; enough cells", "nuclei per well, duplicate mean": 3612, "Outcome": "inactive"}
{"gene symbol": "MEAK7", "PubChem SID": "SID255359564", "migration robust z-score": -0.01, "migration class with cell-count check": "migration z between -2 and 2; enough cells", "nuclei per well, duplicate mean": 5670, "Outcome": "inactive"}
{"gene symbol": "RGS2", "PubChem SID": "SID255352111", "migration robust z-score": 0.62, "migration class with cell-count check": "migration z between -2 and 2; enough cells", "nuclei per well, duplicate mean": 6275, "Outcome": "inactive"}
